# Structures can show the parent of a compound that is named as a salt. The list shows a part of the results. Many values rest on one well or one pass, so single values are uncertain.
# Test system: primary mouse Muller glia with Ascl1 overexpression
# Assay: progenitor-like (ProL) cell count fold change vs Ascl1-only control (log2 fold change); higher = more progenitor-like cells
# Protocol: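 Primary P11 mouse Muller glia carrying dox-inducible Ascl1 were treated with Tocriscreen Stem Cell Library compounds at 0.1, 1 or 10 uM together with doxycycline for 5 days, then profiled by sci-Plex hashing and sci-RNA-seq2. Cells were annotated by marker genes and cell-type counts per well were size-factor adjusted. Read-outs are the log2 fold change of Neuronal (NeuPre + bipolar) and ProL cell counts versus the Ascl1-only control wells of the same collection day, plus the raw number of recovered cells per well. There is one well per dose, and wells with fewer than 20 cells were discarded.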
SMILES,progenitor-like (log2) (0.1 µM),progenitor-like (log2) (1 µM),progenitor-like (log2) (10 µM)
c1ccc2c(-c3cnn4cc(-c5ccc(N6CCNCC6)cc5)cnc34)ccnc2c1 (collection day: 2),-0.492,,
c1ccc2c(Oc3nc(Nc4ccc(N5CCOCC5)cc4)c4ncn(C5CCCCC5)c4n3)cccc2c1 [Purmorphamine] (collection day: 2),0.0317,0.341,0.596
Cc1ccccc1NC(=O)Nc1ccc(CC(=O)N(C)[C@@H](CC(C)C)C(=O)NCC[C@H](NC(=O)[C@@H]2CCCN2S(=O)(=O)c2cc(Cl)cc(Cl)c2)C(=O)O)cc1 (collection day: 2),0.0931,0,-0.134
CCN(CC)S(=O)(=O)Nc1cccc(-c2ccc3c(NC(=O)C4CC4)n[nH]c3c2)c1 (collection day: 2),0.181,0.366,0.0931
CC1(C)CCC(C)(C)c2cc(C(=O)Nc3ccc(C(=O)O)cc3)ccc21 (collection day: 1),0.863,0.399,
CN(C)CCOc1cc(-c2cn[nH]c2)ccc1NC(=O)C1COc2ccccc2O1 (stereo unspecified) [SR 3677 dihydrochloride] (collection day: 2),0.391,,-0.363
O=C(O)CCCc1ccccc1 [Sodium 4-Phenylbutyrate] (collection day: 1),0.495,-0.138,-0.29
CCCCC(CC)CNC(=N)NC(=N)NCCCCCCNC(=N)NC(=N)NCC(CC)CCCC (stereo unspecified) [Alexidine dihydrochloride] (collection day: 2),-2.17,,
COc1cccc(-c2cc(=O)c3ccccc3o2)c1N (collection day: 1),0.585,0.184,0.495
CNC1CCC(N(Cc2cc(-c3ccncc3)ccc2OC)C(=O)c2sc3c(F)ccc(F)c3c2Cl)CC1 (stereo unspecified) (collection day: 2),0.0317,0,
O=c1n(CCCN2CCN(c3cccc(Cl)c3)CC2)nc2ccccn12 [Trazodone hydrochloride] (collection day: 2),0,0.123,0.181
O=S(=O)(NCCNC/C=C/c1ccc(Br)cc1)c1cccc2cnccc12 [H 89 dihydrochloride] (collection day: 1),0.126,0.399,
COc1cc2nc(N3CCCN(C)CC3)nc(NC3CCN(Cc4ccccc4)CC3)c2cc1OC (collection day: 2),0,0.0627,
CCCCCC[C@@H]([C@@H](C)O)n1cnc2c(N)ncnc21 [EHNA hydrochloride] (collection day: 1),0.628,0.585,
Nc1nc(N)c2nc(-c3cccc(Cl)c3)c(N)nc2n1 [Epiblastin A] (collection day: 2),0.0317,0.236,0.123
Cc1ccc(/C=N/NC(=O)c2ccccc2Oc2ccccc2)o1 (collection day: 2),0.236,0.181,-0.0995
Nc1[nH]ncc1-c1cc(Cl)ccc1Oc1cc(F)c(S(=O)(=O)Nc2cscn2)cc1Cl (collection day: 2),0.263,0.209,0.366

# Complete entries from above:
# O=C(O)CCCc1ccccc1 [Sodium 4-Phenylbutyrate] (collection day: 1) in the list: progenitor-like (log2) (0.1 µM): 0.495; progenitor-like (log2) (1 µM): -0.138; progenitor-like (log2) (10 µM): -0.29
# CC1(C)CCC(C)(C)c2cc(C(=O)Nc3ccc(C(=O)O)cc3)ccc21 (collection day: 1) in the list: progenitor-like (log2) (0.1 µM): 0.863; progenitor-like (log2) (1 µM): 0.399

# Source: the supplement of paper PMC11637464
